Experimental data published in patent US20240033255A1, “ORAL PREPARATION CONTAINING JAK INHIBITOR OR SALT THEREOF OR CRYSTAL FORM THEREOF, PREPARATION METHOD THEREFOR, AND APPLICATION THEREOF” (ZHUHAI UNITED LABORATORIES CO., LTD., priority 2021, published 2024).

Settings: 60° C., 92.5% RH, light, 40° C./75% RH and 60° C./75% RH; 5th and 10th day

**Q.** For `O=C(Nc1nc2cccc(C3CCC4(CC3)CN(C(=O)[C@@H]3CC3(F)F)C4)n2n1)C1CC1` [crystal form B, (S)—N-(5-(2-(2,2-difluorocyclopropanecarbonyl)-2-azaspiro[3.5]non-7-yl)-[1,2,4]triazole[1,5-a]pyridin-2-yl) cyclopropane formamide], which “Solid stability: change of crystal form (in words)” value is on record?
**A.** crystal form did not change
